The list shows a part of the results.

Chains of the proteins cited; added tags and fusions are not shown.
UniProt Q0JBA9, entry or part of it: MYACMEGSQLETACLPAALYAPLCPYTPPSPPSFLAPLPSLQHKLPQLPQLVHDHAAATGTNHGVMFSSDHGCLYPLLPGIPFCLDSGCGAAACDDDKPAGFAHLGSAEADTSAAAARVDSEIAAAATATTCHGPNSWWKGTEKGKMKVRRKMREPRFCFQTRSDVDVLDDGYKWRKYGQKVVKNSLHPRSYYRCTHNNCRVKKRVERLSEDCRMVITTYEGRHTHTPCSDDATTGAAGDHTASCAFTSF

This test deals with OsWRKY34 (Oryza sativa, UniProt Q0JBA9 1-250). Kind of test: protein-binding microarray (RPBM); PBS, 2% BSA, 51.3 ng/ul salmon testes DNA, 50 uM zinc acetate, 200 nM TF, 25 C, 1 h; high values mean tight binding. As to conditions: protein: recombinant; tags: N-terminal polyhistidine and DsRed monomer fusion (pET32a); label: CyDye5-dUTP incorporated in the synthesized complementary strand; 3' TTTTT single-stranded linker to array surface; dsDNA, one strand shown. The essentials:
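An Axon 4000B scanner gave the binding signal as per-feature fluorescence intensity in arbitrary units. This followed washing of a custom Agilent array that had been incubated for 1 h at 25 °C with 200 nM protein in PBS, 2% BSA, salmon testes DNA and 50 µM zinc acetate. The proteins were transcription factors fused at the N-terminus to polyhistidine and DsRed, expressed in E. coli BL21-CodonPlus and purified on Ni–NTA.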
For the sequence “GCGAGCGGGGTGGGGCTCGCCGGCCGTCCGCGCGCGGGGACGGAGTCACCTAGTGCAG”, the binding signal is 10500 fluorescence intensity (a.u.). The figure for “ACATCGCCGGGCGGCTGCCTCGACCCCTCCCGTGATCTCCCGGAGTCACCTAGTGCAG” is 8080 fluorescence intensity (a.u.); for “TACTTGGAGTCTTCCTCGCAGTCAACCGTCCATAAAAAATCGGAGTCACCTAGTGCAG” it is 8320 fluorescence intensity (a.u.); for “CTCCAAAACCTCACCCACGTACCACTTATCACAACCACGACGGAGTCACCTAGTGCAG” it is 8170 fluorescence intensity (a.u.). The figure for “TATTTTGTACTTCTTGAAAATGTTCCTTTCTTTTCTGTCACGGAGTCACCTAGTGCAG” is 9740 fluorescence intensity (a.u.). Under “GACCTGCCTACATATATTTACCAGCGTATTAGCATAGTCACGGAGTCACCTAGTGCAG” stands 9080 fluorescence intensity (a.u.); under “GCTCTCTTTCCGCTTCTACCCTCGTCACGTCCACGAAATCCGGAGTCACCTAGTGCAG”, 14900 fluorescence intensity (a.u.); under “AATTAGGTATACCCTCCTCAGTCCTCACTTAGTCACCTTTCGGAGTCACCTAGTGCAG”, 8080 fluorescence intensity (a.u.). As to “ATCCCACCATTACCGCGGCCGCTTTCACATCTCCTCCTCCCGGAGTCACCTAGTGCAG”, the binding signal is 8200 fluorescence intensity (a.u.). Under “TCTTTTCCCCACCTTATCGCCGCCGGTCTCCTCCTCCGACCGGAGTCACCTAGTGCAG” stands 8060 fluorescence intensity (a.u.); under “ATAAATAGACTGAAATGTCCTCGTTCTCTGTTTCTCTTTCCGGAGTCACCTAGTGCAG”, 8040 fluorescence intensity (a.u.).

“CCGTTCTATATTACAAGTCGCTTTAACTTTTTCTTAACCACGGAGTCACCTAGTGCAG”: the binding signal was 14000 fluorescence intensity (a.u.). The figure for “GTGCATGTGTGTGTTGATTTGGCCGTGTAATAAAAAAAGACGGAGTCACCTAGTGCAG” is 10200 fluorescence intensity (a.u.); for “TGCTTTCCGTCCACGTATTCATCGGGCTGCTTCTCCTCTCCGGAGTCACCTAGTGCAG” it is 8400 fluorescence intensity (a.u.). As to “TGTTTGCACTTGAATTCATCCCATAGTTATATTTTTTTCCCGGAGTCACCTAGTGCAG”, the binding signal is 9320 fluorescence intensity (a.u.). The figure for “TGGCATTTGTATTGTATTTCTATTCAAACCGAGGGGTTTTCGGAGTCACCTAGTGCAG” is 8540 fluorescence intensity (a.u.). Consider “CTACAGTGTACTCTTCGCTTATGGCTCCTACTTCACCAACCGGAGTCACCTAGTGCAG”, for which the binding signal was 10500 fluorescence intensity (a.u.).

“GACGGCACGTAGGGTGGGGTGGGTCTGTGCTGATGCATGTCGGAGTCACCTAGTGCAG”: the binding signal was 11300 fluorescence intensity (a.u.). The figure for “GAGCCGCTCGTAAAGTCAACGGTCAACCCCGCCGCACGGACGGAGTCACCTAGTGCAG” is 12600 fluorescence intensity (a.u.). Under “ATTTTCCACGTCATCATGGTGCGGGAGACACGTGTCCACACGGAGTCACCTAGTGCAG” stands 8800 fluorescence intensity (a.u.); under “TGTTGTTGGTTTTCGTATAACATTTGACCATTTCTCTTATCGGAGTCACCTAGTGCAG”, 8240 fluorescence intensity (a.u.); under “ATGATCGTTCACTCACCAGCGAGTACAAGCTACTCCTTCCCGGAGTCACCTAGTGCAG”, 8420 fluorescence intensity (a.u.). Under “TAGCTTAGCCACCTTTTGATTTGCTTCAATTCTCTCTCATCGGAGTCACCTAGTGCAG” stands 8670 fluorescence intensity (a.u.); under “CTGATCCGCCGCCTCGGTCCAGCATCGACAGCCACGCCTTCGGAGTCACCTAGTGCAG”, 10400 fluorescence intensity (a.u.); under “CCACGGGTATCCATGGGTCTTGTGGGTGTAGGGGAGACTCCGGAGTCACCTAGTGCAG”, 8400 fluorescence intensity (a.u.). Regarding “GCTCGGCTTCCTCTCCGCTCGCGTGCTTCGCGCCTTCGTCCGGAGTCACCTAGTGCAG”, the binding signal was 9260 fluorescence intensity (a.u.). The figure for “CTCTTCCTCTCCGCGTAGAGAGATCTGGTTGCTCCATCGACGGAGTCACCTAGTGCAG” is 8380 fluorescence intensity (a.u.).

Take “CCACACCTTTATTCGAATCTTGCGTCCTTTGATGCGGTAACGGAGTCACCTAGTGCAG”: the binding signal was 9540 fluorescence intensity (a.u.). Under “AGTTTGGGTTGTCGCCGGCACCGGAGAAGAAGAGGAATTCCGGAGTCACCTAGTGCAG” stands 10200 fluorescence intensity (a.u.); under “GCTTTCTCTCTCTCGCTCACGTCAAGGTGGTCAGGGCGCCCGGAGTCACCTAGTGCAG”, 8640 fluorescence intensity (a.u.); under “GCCGCCCGCTTGCCGTGCTCTTTTGCTGCTCGCCGCTGGCCGGAGTCACCTAGTGCAG”, 8200 fluorescence intensity (a.u.). The figure for “GACAACCGAGTCGTTGACTTCGGAATTCGCGGCAAGTTGCCGGAGTCACCTAGTGCAG” is 8920 fluorescence intensity (a.u.).

For “CATCTAATACGTCGTCTAAAAATTTCCTTTTCGCAAGCTACGGAGTCACCTAGTGCAG”, the binding signal is 9030 fluorescence intensity (a.u.).

Regarding “AATCTGCTTGTTAATTCACCTGGTAATGCTGTCTTTTATTCGGAGTCACCTAGTGCAG”, the binding signal was 8720 fluorescence intensity (a.u.). Regarding “TGAGTTGTTTTGTTGATAGGTATAGATATGAATCGAATTACGGAGTCACCTAGTGCAG”, the binding signal is 8950 fluorescence intensity (a.u.). Consider “GTCTAAGGCTTTTATCATCTTATATCACACTCGCATAGCTCGGAGTCACCTAGTGCAG”, for which the binding signal is 9790 fluorescence intensity (a.u.). For the sequence “CCTCGTCTTTGTGCTTGCGCCTTCCCCGCAACCTAGATCTCGGAGTCACCTAGTGCAG”, the binding signal is 8040 fluorescence intensity (a.u.). Under “ACTAGTCACACAAATTACCGTGCTTCATCAACGACACTTTCGGAGTCACCTAGTGCAG” stands 9610 fluorescence intensity (a.u.); under “AATTTTCGCCAAGCTTGTACCTTTACGCGGCATTTGATATCGGAGTCACCTAGTGCAG”, 11900 fluorescence intensity (a.u.). The figure for “TCAACCCACCAGCAGTAAACCAACCAACGTGCCAGCGACTCGGAGTCACCTAGTGCAG” is 9820 fluorescence intensity (a.u.); for “ATTTGTCAGCACACCACGTATGCATGCCCTGCTTTATCTTCGGAGTCACCTAGTGCAG” it is 8120 fluorescence intensity (a.u.); for “CTTTTTCTTATAGTCTTCTGGGTCTCCATTTTTAAGTCTTCGGAGTCACCTAGTGCAG” it is 10500 fluorescence intensity (a.u.).

“ACAACTATATAGCAAAATTGTTCGTGGTTTCGTTCAGCTTCGGAGTCACCTAGTGCAG”: the binding signal was 8580 fluorescence intensity (a.u.). As for “ATGTGAGACTGTTTTTTAACTTTTGTTCGGGGTTAGCTCTCGGAGTCACCTAGTGCAG”, the binding signal was 13100 fluorescence intensity (a.u.).

With “GCCCCTACACCATCAACAACGTCCCATCGTCTCTATTCGGCGGAGTCACCTAGTGCAG”, the binding signal is 8970 fluorescence intensity (a.u.).

Source of the values: paper PMC7819943, “Rice protein-binding microarrays: a tool to detect cis-acting elements near promoter regions in rice”.
